The supplement of paper PMC10735217
Where a name gives a salt, the structure may show the parent alone. Some of the results follow. Repeats in this data set agree poorly, so a single value says little.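 The human kidney-derived cells carry a stably integrated construct of eight TEAD-binding elements driving luciferase, read by luminescence in a drug-repurposing library screen. A compound counts as a hit when its signal is more than five robust Z scores above the plate mean.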

System: HEK293A TEAD-LUC reporter
Assay: TEAD-luciferase reporter activity (YAP activation), robust Z score vs plate; higher = stronger YAP/TEAD activation
Conditions: 24 h

| SMILES | TEAD-luciferase reporter activity (compound concentration: 2 uM) | TEAD-luciferase reporter activity (compound concentration: 200 nM) | TEAD-luciferase reporter activity (compound concentration: 10 uM) |
| --- | --- | --- | --- |
| COC(=O)C(c1ccccc1)C1CCCCN1 (stereo not given) [Methylphenidate hydrochloride] | inactive: -0.321 |  |  |
| COC(=O)C(c1ccccc1)C1CCCCN1 (stereo not given) [methylphenidate HCl] | inactive: -0.0206 | inactive: 0.534 | inactive: -0.422 |
| CC(OC(N)=O)C(C)C(C)OC(N)=O (stereo not given) | inactive: 2.46 | inactive: 4.84 | inactive: -0.966 |
| CCC(=O)C1(c2cccc(O)c2)CCN(C)CC1 | inactive: 0.395 | inactive: -1.29 | inactive: 0.255 |
| CCCN1CCOC(c2cccc(O)c2)C1 (stereo not given) | inactive: -0.293 | inactive: 0.264 | inactive: -0.101 |
| ClC=C(Cl)Cl | inactive: -1.61 | inactive: 0.696 | inactive: 0.748 |
| CCOc1cncc(/C=C/CCNC)c1 | inactive: -1.51 | inactive: 1.04 | inactive: -0.266 |
| COc1cccc(S(=O)(=O)N2CCCC2C(=O)N2CCC(N3CCCC3=O)CC2)c1 (stereo not given) |  | inactive: 1.38 | active: 12.8 |
| COc1cc(C)nc(O)c1CNC(=O)c1c(C)n([C@H](C)C2CCOCC2)c2ccccc12 | inactive: 0.826 | inactive: -0.335 | inactive: -1.32 |
| COc1ccc(C[C@@H](C)NCC(O)c2cc(O)cc(O)c2)cc1 (stereo partly drawn) [(R,R)-4-Methoxyfenoterol] | inactive: 0.575 | inactive: -0.169 | inactive: 1.76 |
| C[N+]1(CC(=O)c2ccccc2)C2CCC1CC(OC(=O)C(O)c1ccccc1)C2 (stereo not given) | inactive: -0.966 | inactive: 1.48 | inactive: 3.26 |
| CN1CC[C@]23c4c5ccc(O)c4O[C@H]2[C@@H](O[C@@H]2O[C@H](C(=O)O)[C@@H](O)[C@H](O)[C@H]2O)C=C[C@H]3[C@H]1C5 [Morphine 6-beta-D-glucuronide hydrate] | inactive: -1.29 |  |  |
| CN1CC[C@]23c4c5ccc(O)c4O[C@H]2[C@@H](O[C@@H]2O[C@H](C(=O)O)[C@@H](O)[C@H](O)[C@H]2O)C=C[C@H]3[C@H]1C5 [Morphine 6-Î^2-D-glucuronide hydrate] |  | inactive: -0.512 | inactive: 4.75 |
| CN1c2ccccc2C(c2ccccc2F)=NCC1CNC(=O)c1ccsc1 (stereo not given) [tifluadom] | inactive: 0.0112 | inactive: 0.0774 | inactive: 4.99 |
| CCOC(=O)[C@H]1[C@@H](OC(=O)c2ccccc2)C[C@@H]2CC[C@H]1N2C | inactive: -0.595 | inactive: -1.92 | inactive: 0.0876 |
| CCN1CCCCC12Cc1ccccc1CN(C(=O)Cc1ccc(O)cc1)C2 (stereo not given) |  | inactive: -1.77 | inactive: 2.23 |
| CN(C)CCO | inactive: 1.54 | inactive: -0.0115 | inactive: -0.306 |
| C[C@@H]1CN2c3c(cc4c(N5C(=O)OC[C@H]5C)noc4c3F)CC3(C(=O)NC(=O)NC3=O)[C@@H]2[C@@H](C)O1 [AZD-0914-isomer] | inactive: -0.593 | inactive: 0.0882 | inactive: -0.12 |
| CCCN1CCC[C@@H]2Cc3nc(N)ncc3C[C@H]21 [Quinelorane hydrochloride] | inactive: -0.715 | inactive: -0.748 | inactive: -0.617 |

Some of the entries so far, tab-delimited.
SMILES	TEAD-luciferase reporter activity (compound concentration: 2 uM)	TEAD-luciferase reporter activity (compound concentration: 200 nM)	TEAD-luciferase reporter activity (compound concentration: 10 uM)
CC(OC(N)=O)C(C)C(C)OC(N)=O (stereo not given)	inactive: 2.46	inactive: 4.84	inactive: -0.966
CCOc1cncc(/C=C/CCNC)c1	inactive: -1.51	inactive: 1.04	inactive: -0.266
COc1cccc(S(=O)(=O)N2CCCC2C(=O)N2CCC(N3CCCC3=O)CC2)c1 (stereo not given)		inactive: 1.38	active: 12.8
CN1CC[C@]23c4c5ccc(O)c4O[C@H]2[C@@H](O[C@@H]2O[C@H](C(=O)O)[C@@H](O)[C@H](O)[C@H]2O)C=C[C@H]3[C@H]1C5 [Morphine 6-Î^2-D-glucuronide hydrate]		inactive: -0.512	inactive: 4.75
CN1c2ccccc2C(c2ccccc2F)=NCC1CNC(=O)c1ccsc1 (stereo not given) [tifluadom]	inactive: 0.0112	inactive: 0.0774	inactive: 4.99
CCN1CCCCC12Cc1ccccc1CN(C(=O)Cc1ccc(O)cc1)C2 (stereo not given)		inactive: -1.77	inactive: 2.23
